Data: PMC12907901
These are yes or no findings as the source states them, for the method shown. In cells and extracts the contact can be indirect. Some binding calls cover weakened binding; strength is not graded here. Tags and fused reporters may be left off the sequences shown.

Amino acid sequences for entries named in this document (tags omitted).
UniProt Q9H1Y0: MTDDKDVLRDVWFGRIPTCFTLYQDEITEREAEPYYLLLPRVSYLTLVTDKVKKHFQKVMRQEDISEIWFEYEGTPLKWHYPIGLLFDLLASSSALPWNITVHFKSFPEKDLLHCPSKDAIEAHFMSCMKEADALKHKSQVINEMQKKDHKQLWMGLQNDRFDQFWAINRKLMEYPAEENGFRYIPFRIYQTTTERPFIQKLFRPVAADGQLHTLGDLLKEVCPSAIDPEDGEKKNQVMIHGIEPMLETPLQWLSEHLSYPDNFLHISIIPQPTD

Molecular target: Flag-tagged ATG5 (human) (UniProt Q9H1Y0)
Assay: co-IP; HEK293T; HA-SDE2 variants (full-length and truncations) with Flag-tagged ATG5

| binding | Binder |
| --- | --- |
| binds | HA-SDE2 N-terminal fragment (1–300 aa) (domain or fragment, UniProt Q6IQ49-1 1-300) MAEAAALVWIRGPGFGCKAVRCASGRCTVRDFIHRHCQDQNVPVENFFVKCNGALINTSDTVQHGAVYSLEPRLCGGKGGFGSMLRALGAQIEKTTNREACRDLSGRRLRDVNHEKAMAEWVKQQAEREAEKEQKRLERLQRKLVEPKHCFTSPDYQQQCHEMAERLEDSVLKGMQAASSKMVSAEISENRKRQWPTKSQTDRGASAGKRRCFWLGMEGLETAEGSNSESSDDDSEEAPSTSGMGFHAPKIGSNGVEMAAKFPSGSQRARVVNTDHGSPEQLQIPVTDSGRHILEDSCAE |
| no binding | HA-SDE2 C-terminal fragment (281–450 aa) (domain or fragment, UniProt Q6IQ49-1 281-450) QLQIPVTDSGRHILEDSCAELGESKEHMESRMVTETEETQEKKAESKEPIEEEPTGAGLNKDKETEERTDGERVAEVAPEERENVAVAKLQESQPGNAVIDKETIDLLAFTSVAELELLGLEKLKCELMALGLKCGGTLQERAARLFSVRGLAKEQIDPALFAKPLKGKK |
